{
  "sequences": {"note": "Amino acid sequences for entries named in this document (tags omitted).", "UniProt P33242": "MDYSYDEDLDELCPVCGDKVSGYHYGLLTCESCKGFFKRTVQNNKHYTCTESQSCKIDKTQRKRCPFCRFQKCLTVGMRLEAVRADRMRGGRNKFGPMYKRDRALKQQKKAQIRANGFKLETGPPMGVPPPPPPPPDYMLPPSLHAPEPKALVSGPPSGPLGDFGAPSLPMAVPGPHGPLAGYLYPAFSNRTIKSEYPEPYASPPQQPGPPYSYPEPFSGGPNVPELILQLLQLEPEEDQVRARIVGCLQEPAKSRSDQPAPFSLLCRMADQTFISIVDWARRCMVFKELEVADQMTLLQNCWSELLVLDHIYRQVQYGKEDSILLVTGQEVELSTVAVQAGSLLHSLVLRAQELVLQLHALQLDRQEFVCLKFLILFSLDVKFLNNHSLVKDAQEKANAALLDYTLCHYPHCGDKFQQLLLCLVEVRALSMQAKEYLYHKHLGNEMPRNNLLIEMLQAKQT"},
  "source": "paper PMC7176872",
  "binders": {"B1": {"name": "B-box and SPRY Domain Containing Protein (protein, UniProt Q80YW5 1-473)", "chain": "MSADVSGTESGSESGPEPEPGPEPGPESRPESRPKPGPGPEPRPESGPEPGPRSGLRRGPKQGSERSQLCPEHFEPLSWFCLSERRPVCATCAGFGGRCHRHRIRRAEEHAEELRNKIVDQCERLQLQSAGISKYMAEVLQGKNQKAVVMASAARDLIIQRLSLVRSLCESEEQRLLEQVHGEEERAHQSILTQRAHWVDAVQKLDTLRTNMVDMITHLDDLQLIQREQEIFERAEEAEGILDPQDSEKLSFNEKCAWSPLLTQLWAASVLGSLSGVEEVLIDERTVSPLLHLSEDRRTLTFIAKKSKVCSDEPERFDHWPNALAATAFQTGLHAWIVNVKHSCAYKVGVASDQLPRKGSGNDCRLGHNAFSWVFSRYDQEFCFSHNGYHEPLPLLRCPAQLGMLLDLQAGELVFYEPASGTVLHIHRASFPQVLFPVFAVADQLISIVRGPLATVRLDSPPHHPCRSGHASR"}},
  "molecular_target": "Steroidogenic factor-1 (UniProt P33242)",
  "assay": "co-IP; immunoprecipitation; cells, bait, antibodies and buffer not told",
  "note": "No constants are given. Whether binding was seen depends on the method and setting. Binding seen in cells or lysates may run through a third protein. Some results given as binding are weak or reduced against the parent protein; the word gives no strength.",
  "data": [
    {"binder": "B1", "values": [
      {"measurement": "binding", "result": "binds"}
    ]}
  ]
}
